PubChem BioAssay AID720513 (Broad Institute, 2013)
The campaign covered roughly 2,100 compounds. About 480 (23%) were called active. Roughly 5% stayed inconclusive and do not appear here. This is a selection; strong and weak results do not stand in their true shares. Results with a measured potency or affinity are listed apart.

Test: PGC1a acetylation increase, cellular AlphaLISA – cell-based, cherry-picked samples, set 6, dose response (AID 720513)
Conditions: U2OS PGC1a acetylation AlphaLISA, overnight; at 21 µM (top of the series)

| SMILES | activation (acetylation increase) |
| --- | --- |
| C[C@@H]1CN([C@H](C)CO)C(=O)c2c(c3ccccc3n2C)-c2ccccc2CO[C@@H]1CN(C)C(=O)Oc1ccccc1 | inactive: 357% |
